Measurements as given in doi:10.1101/2022.04.14.487897 (bioRxiv, 2022).
No constants are given. Whether binding was seen depends on the method and setting.

Molecular target: human p66Shc C59S (human) (UniProt P29353)
Test: AUC

binding: no binding (tested: 8.7 μM)
B1: human p66Shc C59S (protein, UniProt P29353-1 1-583)
chain: MDLLPPKPKYNPLRNESLSSLEEGASGSTPPEELPSPSASSLGPILPPLPGDDSPTTLSSFFPRMSNLRLANPAGGRPGSKGEPGRAADDGEGIVGAAMPDSGPLPLLQDMNKLSGGGGRRTRVEGGQLGGEEWTRHGSFVNKPTRGWLHPNDKVMGPGVSYLVRYMGCVEVLQSMRALDFNTRTQVTREAISLVCEAVPGAKGATRRRKPCSRPLSSILGRSNLKFAGMPITLTVSTSSLNLMAADCKQIIANHHMQSISFASGGDPDTAEYVAYVAKDPVNQRACHILECPEGLAQDVISTIGQAFELRFKQYLRNPPKLVTPHDRMAGFDGSAWDEEEEEPPDHQYYNDFPGKEPPLGGVVDMRLREGAAPGAARPTAPNAQTPSHLGATLPVGQPVGGDPEVRKQMPPPPPCPGRELFDDPSYVNVQNLDKARQAVGGAGPPNPAINGSAPRDLFDMKPFEDALRVPPPPQSVSMAEQLRGEPWFHGKLSRREAEALLQLNGDFLVRESTTTPGQYVLTGLQSGQPKHLLLVDPEGVVRTKDHRFESVSHLISYHMDNHLPIISAGSELCLQQPVERKL
